For this assay, the system named is P388 leukemia ip, CD2F1 mice, survival T/C. Nature of the assay: NCI In Vivo Anticancer Drug Screen. Data for tumor model P388 Leukemia (intraperitoneal) in CD2F1 (CDF1) mice. The note with it: T/C endpoint: median survival time, higher T/C = longer survival.
The mark [1] stands for this setting: dose: 200.0 mg/kg/injection, schedule: Q01DX009 (ip), vehicle: saline.
[2] abbreviates: dose: 800.0 mg/kg/injection, schedule: Q01DX005 (ip), vehicle: saline.
The mark [3] stands for this setting: dose: 25.0 mg/kg/injection, schedule: Q01DX009 (ip), vehicle: saline with Tween-80.
The mark [4] stands for this setting: dose: 200.0 mg/kg/injection, schedule: Q04DX003 (ip), vehicle: saline with Tween-80.
Where [5] appears, read: dose: 400.0 mg/kg/injection, schedule: Q04DX003 (ip), vehicle: saline with Tween-80.
The mark [6] stands for this setting: dose: 50.0 mg/kg/injection, schedule: Q01DX005 (ip), vehicle: saline with Tween-80.
Where [7] appears, read: dose: 100.0 mg/kg/injection, schedule: Q01DX005 (ip), vehicle: saline with Tween-80.
The mark [8] stands for this setting: dose: 200.0 mg/kg/injection, schedule: Q01DX005 (ip), vehicle: saline with Tween-80.

The list does not hold the whole screen: it is rich in T/C values a quarter to a half above the control, in often repeated tests (any T/C) and in doses without a T/C. Other doses and runs of a compound stand elsewhere. T/C is the treated group as % of the vehicle group. Some doses have a count of surviving animals in place of a T/C: the source files T/C as zero there, which appears to mark a toxic dose or a test without result, not a measured value. Some doses without a T/C left all or most animals alive at the check, yet need not have been tolerated: the source hardly ever lists a survival T/C far under the control, and the zero likely stands for such cases as well. Survivors were counted at the toxicity check, usually on the fifth day, unless a day is given; later deaths do not show. Schedule codes are those of the source, read here as Q, the interval in days (D) or hours (H), X, the number of doses. Some doses were run more than once; the results are listed from low to high. Where survival is the endpoint, the PubChem record calls one and a half times the control and up active, and a quarter to a half above the control has no call in these data; cut-offs in other NCI protocols can differ. Some T/C values are followed by the survivors on the day toxicity was checked, most often the fifth; where none is given, no animal had died by that day. Counts like (3×) count equal records among those shown.

Consider `CCOC(=O)C(N)CSC(=O)NC` (centres undefined), for which the T/C by setting is: (dose: 41.6 mg/kg/injection, schedule: Q03HX024 (ip), vehicle: saline) 134 % of control; (dose: 50.0 mg/kg/injection, schedule: Q01DX009 (ip), vehicle: saline) 130 % of control; (dose: 55.5 mg/kg/injection, schedule: Q01DX009 (ip), vehicle: saline) 127 % of control; (dose: 58.0 mg/kg/injection, schedule: Q01DX009 (ip), vehicle: saline) 136 % of control; (dose: 88.0 mg/kg/injection, schedule: Q01DX009 (ip), vehicle: saline) 140 % of control; (dose: 100.0 mg/kg/injection, schedule: Q01DX005 (ip), vehicle: saline, evaluated on day 30) 104, 120, 124, 126, 133 % of control. Also, the T/C (dose: 100.0 mg/kg/injection, schedule: Q01DX005 (ip), vehicle: saline, evaluated on day 60) is 120 % of control; the T/C (dose: 100.0 mg/kg/injection, schedule: Q01DX009 (ip), vehicle: saline) is 140 % of control; the T/C (dose: 111.1 mg/kg/injection, schedule: Q01DX009 (ip), vehicle: saline) was 138 % of control; the T/C (dose: 125.0 mg/kg/injection, schedule: Q03HX008 (ip), vehicle: saline) is 135 % of control; the T/C (dose: 200.0 mg/kg/injection, schedule: Q01DX005 (ip), vehicle: saline, evaluated on day 30) is 103, 136, 138 % of control (3×); the T/C (dose: 200.0 mg/kg/injection, schedule: Q01DX005 (ip), vehicle: saline, evaluated on day 60) was 131 % of control. Besides, the T/C was 147 % of control under setting [1]; 131 % of control [7 of 10 alive] (dose: 222.2 mg/kg/injection, schedule: Q01DX009 (oral), vehicle: saline); 128 % of control (dose: 333.3 mg/kg/injection, schedule: Q04DX003 (ip), vehicle: saline); 103, 150, 150 [4 of 5 alive], 165, 169 % of control (dose: 400.0 mg/kg/injection, schedule: Q01DX005 (ip), vehicle: saline, evaluated on day 30); 145 % of control (dose: 400.0 mg/kg/injection, schedule: Q01DX005 (ip), vehicle: saline, evaluated on day 60); 127 % of control [9 of 10 alive] (dose: 400.0 mg/kg/injection, schedule: Q01DX005 (iv), vehicle: saline). For the same compound, under setting [2], the T/C was 96 % of control. The survivor count runs as follows: (dose: 250.0 mg/kg/injection, schedule: Q03HX008 (ip), vehicle: saline) 1 of 10; (dose: 333.2 mg/kg/injection, schedule: Q03HX024 (ip), vehicle: saline) 0 of 10; (dose: 500.0 mg/kg/injection, schedule: Q03HX008 (ip), vehicle: saline) 0 of 10; under setting [2], 0 of 5, 0 of 6, 2 of 10, 4 of 10; (dose: 800.0 mg/kg/injection, schedule: Q01DX005 (iv), vehicle: saline) 0 of 10; (dose: 888.8 mg/kg/injection, schedule: Q01DX009 (ip), vehicle: saline) 0 of 10. The survivor count is 0 of 10 (dose: 1000.0 mg/kg/injection, schedule: Q01DX001 (iv), vehicle: saline); 6 of 10 (dose: 1333.3 mg/kg/injection, schedule: Q04DX003 (ip), vehicle: saline); 0 of 10 (dose: 1600.0 mg/kg/injection, schedule: Q01DX005 (ip), vehicle: saline); 0 of 10 (dose: 2000.0 mg/kg/injection, schedule: Q01DX001 (ip), vehicle: saline); 0 of 10 (dose: 2000.0 mg/kg/injection, schedule: Q01DX001 (iv), vehicle: saline); 0 of 10 (dose: 4000.0 mg/kg/injection, schedule: Q01DX001 (ip), vehicle: saline). Moreover, the survivor count (dose: 4000.0 mg/kg/injection, schedule: Q01DX001 (iv), vehicle: saline) is on record as 0 of 10.
On to `S=P(NCCNP(=S)(N1CC1)N1CC1)(N1CC1)N1CC1`, for which the T/C was 133 % of control (dose: 12.5 mg/kg/injection, schedule: Q01DX009 (ip), vehicle: saline with Tween-80) and 137 % of control under setting [3]. Moreover, the survivor count (dose: 100.0 mg/kg/injection, schedule: Q04DX003 (ip), vehicle: saline with Tween-80) is given as 6 of 6; the survivor count under setting [4] is recorded as 5 of 6; the survivor count under setting [5] is 3 of 6.
For the compound `O=C(Nc1ccc(S(=O)(=O)F)cc1)/C(=C/c1ccc([N+](=O)[O-])cc1)c1ccccc1`, the survivor count (dose: 240.0 mg/kg/injection, schedule: Q01DX005 (ip), vehicle: saline with Tween-80) is reported as 2 of 6.
On to `C/C=C/[Se]c1ccccc1`, for which the survivor count under setting [3] was 6 of 6 and the survivor count (dose: 200.0 mg/kg/injection, schedule: Q01DX009 (ip), vehicle: saline with Tween-80) is recorded as 0 of 6, 1 of 6, 4 of 6. The T/C is 99 % of control (dose: 50.0 mg/kg/injection, schedule: Q01DX009 (ip), vehicle: saline with Tween-80, evaluated on day 20) and 103, 116, 128 % of control (dose: 50.0 mg/kg/injection, schedule: Q01DX009 (ip), vehicle: saline with Tween-80, evaluated on day 30).
Turning to `NCCC(=O)OC1CCCc2c(O)c3c(c(O)c21)C(=O)c1ccccc1C3=O` (centres undefined), the survivor count (dose: 100.0 mg/kg/injection, schedule: Q01DX009 (ip), vehicle: water) was 3 of 6.
Take `CC(=O)C1=C(C)NC(C)=C(C(C)=O)C1c1cccc([N+](=O)[O-])c1`: the survivor count is 6 of 6 under setting [4] and 6 of 6 under setting [5].
`CCOC(=O)NCP(Cl)(CNC(=O)OCC)(CNC(=O)OCC)CNC(=O)OCC`: under setting [1], the survivor count is given as 3 of 6.
With `O=c1n(CC2CC3(Cl)C(Cl)=C(Cl)C2(Cl)C3(Cl)Cl)c(=O)n(CC2CC3(Cl)C(Cl)=C(Cl)C2(Cl)C3(Cl)Cl)c(=O)n1CC1CC2(Cl)C(Cl)=C(Cl)C1(Cl)C2(Cl)Cl` (centres undefined), the survivor count (dose: 100.0 mg/kg/injection, schedule: Q01DX009 (ip), vehicle: saline with Tween-80) is given as 6 of 6.
With `Cc1ccc2c(c1)C=CC(C#N)N2C(=O)OCc1ccccc1` (centres undefined), under setting [5], the survivor count was 6 of 6.
Regarding `Nc1cc2c(c[n+](CCCCCCCC[n+]3cc4c5ccccc5c(N)cc4c4ccccc43)c3ccccc23)c2ccccc12`, the T/C (dose: 12.5 mg/kg/injection, schedule: Q04DX003 (ip), vehicle: other) is 144 % of control. Moreover, the survivor count is, setting by setting: (dose: 25.0 mg/kg/injection, schedule: Q04DX003 (ip), vehicle: other) 6 of 6; (dose: 50.0 mg/kg/injection, schedule: Q04DX003 (ip), vehicle: other) 5 of 6; (dose: 100.0 mg/kg/injection, schedule: Q04DX003 (ip), vehicle: other) 5 of 6.
Turning to `CCCCCCCCCCCCCCCCOP(=O)([O-])OCC[N+](C)(C)C`, the survivor count (dose: 120.0 mg/kg/injection, schedule: Q01DX005 (ip), vehicle: saline) is reported as 0 of 6 and the survivor count (dose: 240.0 mg/kg/injection, schedule: Q01DX005 (ip), vehicle: saline) is given as 0 of 6.
With `C=CCC(C(C)=O)C(C)=NCCN=C(C)C(CC=C)C(C)=O.[Cu]` (centres undefined), the survivor count (dose: 25.0 mg/kg/injection, schedule: Q01DX005 (ip), vehicle: saline with Tween-80) is reported as 3 of 5; the survivor count under setting [6] is 0 of 5; the survivor count under setting [7] is recorded as 0 of 5; the survivor count under setting [8] is recorded as 0 of 5.
As for `Clc1ncnc2c1ncn2C1CCCO1` (centres undefined), the survivor count under setting [1] is given as 4 of 6.
For `CC(=O)NC#N.CCN(CC)CC.[CH-]1CCCCC1.[CH-]1CCCCC1.[CH-]1CCCCC1.[Cl-].[Sn+4]`, the survivor count reads like this: (dose: 12.5 mg/kg/injection, schedule: Q01DX005 (ip), vehicle: saline with Tween-80) 0 of 6; under setting [6], 0 of 6; under setting [7], 0 of 6; under setting [8], 0 of 6.
For `CCCCCCCCCCCCCCCCCC(=O)OCCN(C=O)C[n+]1ccccc1`, the survivor count (dose: 400.0 mg/kg/injection, schedule: Q04DX002 (ip), vehicle: saline) is given as 3 of 6.

(Values after PubChem BioAssay AID330 (DTP/NCI, 2004).)
